Source: patent US8232315B2, “Methods for treating drug addiction and improving addiction-related behavior” (SK Biopharmaceuticals Co., Ltd., priority 2009, dated 2012)
At least one structure is not confirmed: it was looked up by name or label, or the drawing left a doubt.

System: monkeys trained to discriminate cocaine (0.40 mg/kg) from saline
Test: Cocaine drug discrimination (substitution protocol) in rhesus monkeys
Format: in vivo, rhesus monkeys (Macaca mulatta)
Conditions: relative to saline control
Description: Subjects: The subjects were four male rhesus monkeys (Macaca mulatta) each weighing 7.0-8.0 kg. Each monkey was maintained on a diet of 7-12 monkey biscuits (Purina Monkey Chow Jumbo #5037) and one piece of fresh fruit per day. During the week, all food was delivered after the experimental session, whereas on weekends, food was delivered between 9 a.m. and noon. Water was freely available at all times. The room in which the monkeys were housed was maintained on a 12-hr light/dark cycle, with lights on from 7 a.m. to 7 p.m.
Apparatus: Each monkey was housed individually in a well-ventilated, stainless steel chamber (56×71×69 cm). The home cages of all monkeys were modified to include an operant panel (28×28 cm) mounted on the front wall. Three square translucent response keys (6.4×6.4 cm) were arranged 2.54 cm apart in a horizontal row 3.2 cm from the top of the operant panel. Each key could be transilluminated by red or green stimulus lights (Superbright LED'S). In addition, the operant panel supported an externally mounted pellet dispenser (Gerbrands, Model G53 10, Arlington, Mass.) that delivered 1 gm fruit-flavored food pellets (Precision Primate Pellets Formula L/I Banana Flavor, P. J. Noyes Co., Lancaster, N.H.) to a food receptacle mounted on the cage beneath the operant response panel. Operation of the operant panels and data collection were accomplished with IBM-compatible computers and interface systems (MedAssociates; St. Albans, Vt.) located in a separate room.
Discrimination Training: Discrimination training was conducted 5 days per week during daily sessions composed of multiple cycles. Each cycle consisted of a 15-min time-out period followed by a 5-min response period. During the time-out, all stimulus lights were off, and responding had no scheduled consequences. During the response period, the right and left response keys were transilluminated red or green, and monkeys could earn up to 10 food pellets by responding under a FR 30 schedule of food presentation. For all four monkeys in this study, the left key was illuminated green, and the right key was illuminated red. The center key was not illuminated at any time, and responding on the center key had no scheduled consequences. If all available food pellets were delivered before the end of the 5-min response period, the stimulus lights transilluminating the response keys were turned off, and responding had no scheduled consequences for the remainder of the 5-min period.
On training days, monkeys were given an i.m. injection of either saline or 0.40 mg/kg cocaine 5-min after the beginning of each time-out period (i.e., 10 min before the response period). […]
During each response period, 3 dependent variables were determined using the following equations. […]

## COC(=O)[C@H]1[C@@H](OC(=O)c2ccccc2)C[C@@H]2CC[C@H]1N2C [cocaine, reference compound]
Monkey 92N012, substituting doses of test compound / training dose of cocaine
  Effect on response rates: increased response rates
Monkey 153F, substituting doses of test compound / training dose of cocaine
  Effect on response rates: decreased response rates
Monkey 186F, substituting doses of test compound / training dose of cocaine
  Effect on response rates: had no effect on response rates
Monkey L958, training dose of cocaine
  Effect on response rates: increased response rates
